Results taken from PMC9502984.
These are yes or no findings as the source states them, for the method shown. Binding seen in cells or lysates may run through a third protein. Some entries that bind do so weakly or less than the wild type. Sequences can lack the tags named with a protein.

Amino acid sequences for entries named in this document (tags omitted).
UniProt O95166: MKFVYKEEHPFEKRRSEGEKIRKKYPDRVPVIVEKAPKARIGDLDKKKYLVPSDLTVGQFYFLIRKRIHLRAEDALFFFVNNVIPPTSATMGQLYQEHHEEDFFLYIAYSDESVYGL

What was measured:
[1] = molecular target: T1, 3×Flag-ATG4A (wild-type, full-length ATG4A) (UniProt Q8WYN0); experiment: co-IP; HEK293T cells co-transfected with GFP-GABARAP and a Flag-tagged ATG4 construct; lysates incubated with anti-FLAG magnetic beads overnight at 4 °C, eluted with 1% SDS sample buffer, Western blot
T1 sequence: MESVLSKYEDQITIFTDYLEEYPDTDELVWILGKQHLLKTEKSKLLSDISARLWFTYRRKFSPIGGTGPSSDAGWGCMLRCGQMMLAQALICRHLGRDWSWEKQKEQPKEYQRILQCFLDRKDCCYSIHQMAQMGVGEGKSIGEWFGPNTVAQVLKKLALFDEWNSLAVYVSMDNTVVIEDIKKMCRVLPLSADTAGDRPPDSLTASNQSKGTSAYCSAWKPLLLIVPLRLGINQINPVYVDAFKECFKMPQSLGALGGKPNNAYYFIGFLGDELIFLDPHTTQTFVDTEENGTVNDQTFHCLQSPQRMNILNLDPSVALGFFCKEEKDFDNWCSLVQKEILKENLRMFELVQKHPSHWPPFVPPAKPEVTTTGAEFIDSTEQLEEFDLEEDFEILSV

[2] = molecular target: T2, Truncated 3×Flag-ATG4A (T-ATG4A, lacking amino acids 374–398) (UniProt Q8WYN0); experiment: as above
T2 sequence: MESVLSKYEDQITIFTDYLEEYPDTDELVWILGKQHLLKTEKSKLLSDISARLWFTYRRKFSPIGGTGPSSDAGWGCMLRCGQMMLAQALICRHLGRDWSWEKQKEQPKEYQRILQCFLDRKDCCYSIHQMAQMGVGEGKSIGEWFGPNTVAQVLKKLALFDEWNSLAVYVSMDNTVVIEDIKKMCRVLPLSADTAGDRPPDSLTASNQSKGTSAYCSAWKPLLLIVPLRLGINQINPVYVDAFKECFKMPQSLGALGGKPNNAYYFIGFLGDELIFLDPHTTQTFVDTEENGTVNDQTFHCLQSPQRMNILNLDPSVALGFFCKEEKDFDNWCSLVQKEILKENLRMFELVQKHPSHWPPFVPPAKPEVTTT

binding [1]: binds | binding [2]: binds
Substance: GFP-GABARAP (from UniProt O95166 1-117)
